PubChem BioAssay AID602196, INSERM, 2012
Test: 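Knock-downs that protect lung cancer cells from cisplatin or sensitise them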. Cells: human A549 lung cancer cells. Reagent: siRNA pair against human genes. Time to read-out: 48 h transfection before cisplatin; time from cisplatin to read-out not stated. Conditions: cisplatin at a dose killing half of control-siRNA cells; exact dose and duration not given. Detection: 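Shift in cisplatin death relative to control siRNA, from -50 (all cells die) to +50 (no cells die); siRNAs harmful on their own scored 0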. Reading the numbers: two-siRNA summed score (-2 to +2): higher = both siRNAs protect from cisplatin killing; -2 means both sensitise. Rule for the call: 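siRNAs harmful alone (LDH or WST-1) get 0; others get +1 for less and -1 for more cisplatin killing; genes are active when the two siRNAs give the same sign, summing to ±2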. Calls: active = both siRNAs shift cisplatin killing the same way; inactive = no consistent shift, or siRNA harmful alone.
In all, the deposit lists about 23,000 reagents; shown is a part drawn at random. In the full data, 455 (2%) were called active. 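Active includes both protection and sensitisation; some change values fall well beyond the stated -50 to +50 range.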 Not all columns of the deposit are shown. Not given: the amount of reagent.

U2SURP gave two-siRNA summed score (-2 to +2) = 0; inactive. Silencing of LOC441998 came out at: two-siRNA summed score (-2 to +2) = 0; inactive. After knock-down of PDGFC, the screen gave two-siRNA summed score (-2 to +2) = 0; inactive. After knock-down of DR1, the record shows two-siRNA summed score (-2 to +2) = 0; inactive. After knock-down of GLRA3, the screen gave two-siRNA summed score (-2 to +2) = 0; inactive. Against CTXN1, the entry reads two-siRNA summed score (-2 to +2) = 0; inactive.

Depletion of SRP72 gave: two-siRNA summed score (-2 to +2) = 2; active. Depletion of B3GALT2 gave: two-siRNA summed score (-2 to +2) = 0; inactive. For NUDT3 the deposit lists two-siRNA summed score (-2 to +2) = 1; inactive. CACNB3 scored two-siRNA summed score (-2 to +2) = 1; inactive. LOC390641 scored two-siRNA summed score (-2 to +2) = 1; inactive. With knock-down of LOC400664, the screen gave two-siRNA summed score (-2 to +2) = 0; inactive.

Part of the list above in another layout.
target,two-siRNA summed score (-2 to +2),Call
NUDT3,1,inactive
CACNB3,1,inactive
LOC390641,1,inactive
LOC400664,0,inactive

Additional reagents:
Silencing of LOC147151 gave: two-siRNA summed score (-2 to +2) = 0; inactive. Against LOC400888, the values are two-siRNA summed score (-2 to +2) = 0; inactive. Silencing of UNC5D resulted in: two-siRNA summed score (-2 to +2) = -1; inactive. AK2 showed two-siRNA summed score (-2 to +2) = 0; inactive. With knock-down of SPSB2, the record shows two-siRNA summed score (-2 to +2) = 0; inactive. GPR39 showed two-siRNA summed score (-2 to +2) = 0; inactive.

For FLJ46365 (retired record), the values are two-siRNA summed score (-2 to +2) = 0; inactive. For MEP1B, the entry reads two-siRNA summed score (-2 to +2) = 0; inactive. PGAP3 showed two-siRNA summed score (-2 to +2) = 0; inactive.
